Reference: patent US11142514B2, “Imino compounds with a 2-chloropyrimidin-5-yl substituent as pest-control agents” (BASF SE, priority 2015, dated 2021)
Some of these results come from one statement about several compounds together.

What was measured:
Assay type in all cases: in vivo
[1] = test system: Boll weevil (Anthonomus grandis); assay: Boll weevil (Anthonomus grandis) microtiter diet test B.1; conditions: 2500 ppm; egg and larval mortality after 5 days
[2] = test system: Cotton aphid (Aphis gossypii); assay: Cotton aphid (Aphis gossypii) foliar spray test B.3; conditions: 300 ppm; cotton plants sprayed; after 5 days
Procedure: (§1) The active compounds were formulated by a Tecan liquid handler in 100% cyclohexanone as a 10,000 ppm solution supplied in tubes. The 10,000 ppm solution was serially diluted in 100% cyclohexanone to make interim solutions. These served as stock solutions for which final dilutions were made by the Tecan in 50% acetone:50% water (v/v) into 10 or 20 ml glass vials. A nonionic surfactant (Kinetic®) was included in the solution at a volume of 0.01% (v/v). The vials were then inserted into an automated electrostatic sprayer equipped with an atomizing nozzle for application to plants/insects.
Cotton plants at the cotyledon stage were infested with aphids prior to treatment by placing a heavily infested leaf from the main aphid colony on top of each cotyledon. Aphids were allowed to transfer overnight to accomplish an infestation of 80-100 aphids per plant and the host leaf was removed. The infested plants were then sprayed by an automated electrostatic plant sprayer equipped with an atomizing spray nozzle. The plants were dried in the sprayer fume hood, removed from the sprayer, and then maintained in a growth room under fluorescent lighting in a 24-hr photoperiod at 25° C. and 20-40% relative humidity. Aphid mortality on the treated plants, relative to mortality on untreated control plants, was determined after 5 days.
(§2) The compound of example I-1 was compared with the compound of example I.B-4 of WO 2015/040116 having an unsubstituted pyrimidin-5-yl ring instead of the present 2-chloropyrimidin-5-yl ring with respect to the insecticidal activity. The assays were carried out as described above for the respective pest (the cotton aphid assay according to B.3).

[3] = test system: Cowpea aphid (Aphis craccivora); assay: Cowpea aphid (Aphis craccivora) spray test B.5; conditions: 300 ppm; cowpea plants sprayed; after 72 hours
Procedure: (§3) The active compound was dissolved at the desired concentration in a mixture of 1:1 (vol:vol) distilled water: acetone. Surfactant (Kinetic® HV) was added at a rate of 0.01% (vol/vol). The test solution was prepared at the day of use.
Potted cowpea plants were colonized with approximately 30-50 aphids of various stages by manually transferring a leaf tissue cut from infested plant 24 hours before application. Plants were sprayed with the test solutions using a DeVilbiss® hand atomizer at 20-30 psi (≈1.38 to 2.07 bar) after the pest population has been checked. Treated plants were maintained on light carts at about 25-26° C. Percent mortality was assessed after 72 hours.
as §2

[4] = test system: Green Peach Aphid (Myzus persicae); assay: Green peach aphid (Myzus persicae) foliar spray test B.7; conditions: 2500 ppm; bell pepper plants sprayed; after 5 days
Procedure: as §1
Bell pepper plants at the first true-leaf stage were infested prior to treatment by placing heavily infested leaves from the main colony on top of the treatment plants. Aphids were allowed to transfer overnight to accomplish an infestation of 30-50 aphids per plant and the host leaves were removed. The infested plants were then sprayed by an automated electrostatic plant sprayer equipped with an atomizing spray nozzle. The plants were dried in the sprayer fume hood, removed, and then maintained in a growth room under fluorescent lighting in a 24 h photoperiod at about 25° C. and about 20-40% relative humidity. Aphid mortality on the treated plants, relative to mortality on untreated control plants, was determined after 5 days.
as §2

[5] = test system: Green Soldier Stink Bug (Nezara viridula); assay: Green soldier stink bug (Nezara viridula) test B.8; conditions: 300 ppm; soybean pods; after 5 days
Procedure: as §3
Soybean pods were placed in 90×50 mm glass Petri dishes lined with moist filter paper and inoculated with ten late 3rd instar N. viridula. Using a hand atomizer, an approximately 2 ml solution was sprayed into each Petri dish. Treated cups were kept at about 25-26° C. and relative humidity of about 65-70%. Percent mortality was recorded after 5 days.

[6] = test system: Mediterranean fruitfly (Ceratitis capitata); assay: Mediterranean fruitfly (Ceratitis capitata) microtiter diet test B.9; conditions: 2500 ppm; egg and larval mortality after 5 days
[7] = test system: Orchid thrips (Dichromothrips corbetti); assay: Orchid thrips (Dichromothrips corbetti) floral immersion test B.10; conditions: 300 ppm; orchid petals dipped; 72 hours after treatment
Procedure: Dichromothrips corbetti adults used for bioassay were obtained from a colony maintained continuously under laboratory conditions. For testing purposes, the test compound was diluted in a 1:1 mixture of acetone:water (vol:vol), plus Kinetic® HV at a rate of 0.01% v/v.
Thrips potency of each compound was evaluated by using a floral immersion technique. All petals of individual, intact orchid flowers were dipped into treatment solution and allowed to dry in Petri dishes. Treated petals were placed into individual re-sealable plastic along with about 20 adult thrips. All test arenas were held under continuous light and a temperature of about 28° C. for duration of the assay. After 3 days, the numbers of live thrips were counted on each petal. The percent mortality was recorded 72 hours after treatment.
as §2

[8] = test system: Rice green leafhopper (Nephotettix virescens); assay: Rice green leafhopper (Nephotettix virescens) spray test B.12; conditions: 300 ppm; rice seedlings sprayed; after 72 hours
Procedure: (§4) Four to five-week old rice seedlings with cut upper leaf portion were cleaned and washed 24 hours before spraying. The active compounds were formulated in 1:1 acetone:water (vol:vol), and 0.01% vol/vol surfactant (Kinetic® HV) was added. Potted rice seedlings were sprayed with 5-6 ml test solution, air dried, covered with Mylar cages and inoculated with 10 adults. Treated rice plants were kept at about 28-29° C. and relative humidity of about 50-60%. Percent mortality was recorded after 72 hours.
as §2

[9] = test system: Rice brown plant hopper (Nilaparvata lugens); assay: Rice brown plant hopper (Nilaparvata lugens) spray test B.13; conditions: 300 ppm; rice seedlings sprayed; after 72 hours
Procedure: as §4, with “seedlings” for “seedlings with cut upper leaf portion”, “(vol:vol)” for “(vol:vol),”

[10] = test system: Silverleaf whitefly (Bemisia argentifolii); assay: Silverleaf whitefly (Bemisia argentifolii) foliar spray test B.14; conditions: 300 ppm; cotton plants sprayed; 3 days after treatment
[11] = test system: Southern armyworm (Spodoptera eridania); assay: Southern armyworm (Spodoptera eridania) foliar spray test B.15; conditions: 300 ppm; lima bean plants sprayed; 4 days after treatment
Procedure: as §1
Lima bean plants (variety Sieva) were grown 2 plants to a pot and selected for treatment at the 1st true leaf stage. Test solutions were sprayed onto the foliage by an automated electrostatic plant sprayer equipped with an atomizing spray nozzle. The plants were dried in the sprayer fume hood and then removed from the sprayer. Each pot was placed into perforated plastic bags with a zip closure. About 10 to 11 armyworm larvae were placed into the bag and the bags zipped closed. Test plants were maintained in a growth room at about 25° C. and about 20-40% relative humidity for 4 days, avoiding direct exposure to fluorescent light (24 hour photoperiod) to prevent trapping of heat inside the bags. Mortality and reduced feeding were assessed 4 days after treatment, compared to untreated control plants. […]

[12] = test system: Tobacco budworm (Heliothis virescens); assay: Tobacco budworm (Heliothis virescens) microtiter diet test B.17; conditions: 2500 ppm; egg and larval mortality after 5 days
[13] = test system: Vetch aphid (Megoura viciae); assay: Vetch aphid (Megoura viciae) leaf disk test B.19; conditions: 2500 ppm; broad bean leaf disks; after 5 days
Procedure: For evaluating control of vetch aphid (Megoura viciae) through contact or systemic means the test unit consisted of 24-well-microtiter plates containing broad bean leaf disks.
The compounds were formulated using a solution containing 75% v/v water and 25% v/v DMSO. Different concentrations of formulated compounds were sprayed onto the leaf disks at 2.5 μl, using a custom built micro atomizer, at two replications.
After application, the leaf disks were air-dried and 5-8 adult aphids placed on the leaf disks inside the microtiter plate wells. The aphids were then allowed to suck on the treated leaf disks and incubated at about 23±1° C. and about 50±5% relative humidity for 5 days. Aphid mortality and fecundity was then visually assessed.

[14] = test system: Yellow fever mosquito (Aedes aegypti); conditions: 2500 ppm; larval mortality after 2 days

Measured: mortality in comparison with untreated controls

CON=CC(=S)N=c1ccccn1Cc1cnc(Cl)nc1 [I-3]
over 75%: all assays above

O=C(C[N+](=O)[O-])N=c1ccccn1Cc1cnc(Cl)nc1 [I-5]
over 75%: [2] | [3] | [4] | [6] | [8] | [9] | [13] | [14]

Cc1csc(=NC(=O)C2(C#N)CC2)n1Cc1cnc(Cl)nc1 [I-6]
not listed: [5] | [9] | [10] | [11]
over 75%: all other assays above

CON=CC(=O)N=c1ccccn1Cc1cnc(Cl)nc1 [I-2]
over 75%: [2] | [3] | [5] | [7] | [8] | [9] | [10] | [11]

N#CCC(=O)N=c1ccccn1Cc1cnc(Cl)nc1 [I-4]
over 75%: [2] | [3] | [4] | [7] | [8] | [9] | [13]
